In all, about 400,000 compounds went through this assay and about 5,500 (1.4%) were called active. Inconclusive results, whose numbers are uncertain, are shown with a selection of clear calls. The call rests on the fitted dose curve; in most records, active means well fitted cell-killing curve with a large enough effect; inconclusive means small, poorly fitted or top-dose-only effect, or effect the other way; inactive means flat fitted curve, though single readings scatter. Where the call is inconclusive, the potency comes from a doubtful curve fit.
Assay: qHTS assay for MDR1-selective chemotherapeutics: Primary screen using the parental adenocarcinoma cell KB-3-1; further: nearly all actives have a fitted effect of over 60% in size
Conditions: KB-3-1 viability, CellTiter-Glo ATP luminescence, 72 h; series mostly up to 46.1 µM
Method in brief: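 KB-3-1 parental drug-naive adenocarcinoma cells in DMEM/10% FBS, incubated 72 h at 37 C with pin-transferred compounds across a concentration series. Viability by CellTiter-Glo luminescence; concentration-response curves fitted after normalization.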
Potency means the concentration at half of the fitted maximal effect.

| Structure (SMILES) | Potency |
| --- | --- |
| Cc1cccc(N2CCN(C(=O)CCCCn3c(=O)[nH]c4ccsc4c3=O)CC2)c1C | inactive |
| COc1ccc2c(c1)oc(=O)c1cc(OC)ccc12 | inconclusive: 0.0146 µM [rising, full curve] |
| Cc1ccc(-c2n[nH]c(=O)c3ccccc23)cc1S(=O)(=O)Nc1ccccc1 | inconclusive: 16.4 µM [cytotoxic, single point] |
| COc1ccc(S(=O)(=O)N2CCN(C(=O)c3ccc(COc4ccccc4)o3)CC2)cc1 | inconclusive: 18.4 µM [cytotoxic, single point] |
| Cc1ccc(Cn2cc(CN3CC(N4CCN(Cc5cccc(C)c5)CC4)CS3(=O)=O)nn2)cc1 (configuration not stated) | inconclusive: 23.1 µM [cytotoxic, single point] |
| COc1ccccc1C(=O)Nc1ccc2c(c1)CCCN2C(=O)c1cccs1 | inconclusive: 29.1 µM [cytotoxic, single point] |
| COc1cc(C=C2C(=O)C=CC2=O)ccc1O | active: 20.6 µM |
| CCc1ccc(OCC(=O)N/N=C(\C)c2ccc(O)cc2O)cc1 | inconclusive: 23.1 µM [cytotoxic, single point] |
| CCOc1ccccc1CNc1ncnc2ccc(-c3c(C)noc3C)cc12 | inconclusive: 29.1 µM [cytotoxic, single point] |
| c1ccc(-c2csc3ncnc(N4CCN(Cc5ccc6c(c5)OCO6)CC4)c23)cc1 | inconclusive: 25.9 µM [cytotoxic, single point] |
| CC(C)CC(=O)Nc1c(C(=O)N2CCN(c3ccccc3)CC2)oc2ccccc12 | inconclusive: 16.4 µM [cytotoxic, single point] |
| O=C(CCN1C(=O)/C(=C/c2ccccc2F)SC1=S)NCCc1ccc(O)cc1 | inconclusive: 13 µM [cytotoxic, partial curve, poor fit] |
| C[C@H]1CN([C@@H](C)CO)C(=O)c2cccc(NC(=O)Nc3ccc(C(F)(F)F)cc3)c2O[C@@H]1CN(C)C(=O)Nc1ccc(F)cc1 | inconclusive: 29.1 µM [cytotoxic, single point] |
| Cc1ccc(C(=O)O)cc1N1C(=O)c2cccc3c([N+](=O)[O-])ccc(c23)C1=O | inconclusive: 29.1 µM [cytotoxic, single point] |
| O=C(NC1CCCc2ccccc21)C12CC3CC(CC(O)(C3)C1)C2 (configuration not stated) | inconclusive: 29.1 µM [cytotoxic, single point] |
| COc1cc(OC)c(/C=C2\C(=O)Nc3ccccc32)c(OC)c1 | active: 4.11 µM |
| O=C1CCCCC1C(=O)c1ccccc1 (configuration not stated) | inconclusive: 0.0164 µM [cytotoxic, full curve] |

A few values from the entries so far.
In Potency, `COc1ccc(S(=O)(=O)N2CCN(C(=O)c3ccc(COc4ccccc4)o3)CC2)cc1` has the entry inconclusive: 18.4 µM [cytotoxic, single point]
In Potency, `Cc1ccc(-c2n[nH]c(=O)c3ccccc23)cc1S(=O)(=O)Nc1ccccc1` has the entry inconclusive: 16.4 µM [cytotoxic, single point]

Source: PubChem BioAssay AID1347075 (National Center for Advancing Translational Sciences (NCATS), 2019)
